Source: article doi:10.1101/583740 (bioRxiv, 2019)

Target: T1, HA-SIRT1 (sirtuin type 1) (UniProt Q923E4)
T1 sequence: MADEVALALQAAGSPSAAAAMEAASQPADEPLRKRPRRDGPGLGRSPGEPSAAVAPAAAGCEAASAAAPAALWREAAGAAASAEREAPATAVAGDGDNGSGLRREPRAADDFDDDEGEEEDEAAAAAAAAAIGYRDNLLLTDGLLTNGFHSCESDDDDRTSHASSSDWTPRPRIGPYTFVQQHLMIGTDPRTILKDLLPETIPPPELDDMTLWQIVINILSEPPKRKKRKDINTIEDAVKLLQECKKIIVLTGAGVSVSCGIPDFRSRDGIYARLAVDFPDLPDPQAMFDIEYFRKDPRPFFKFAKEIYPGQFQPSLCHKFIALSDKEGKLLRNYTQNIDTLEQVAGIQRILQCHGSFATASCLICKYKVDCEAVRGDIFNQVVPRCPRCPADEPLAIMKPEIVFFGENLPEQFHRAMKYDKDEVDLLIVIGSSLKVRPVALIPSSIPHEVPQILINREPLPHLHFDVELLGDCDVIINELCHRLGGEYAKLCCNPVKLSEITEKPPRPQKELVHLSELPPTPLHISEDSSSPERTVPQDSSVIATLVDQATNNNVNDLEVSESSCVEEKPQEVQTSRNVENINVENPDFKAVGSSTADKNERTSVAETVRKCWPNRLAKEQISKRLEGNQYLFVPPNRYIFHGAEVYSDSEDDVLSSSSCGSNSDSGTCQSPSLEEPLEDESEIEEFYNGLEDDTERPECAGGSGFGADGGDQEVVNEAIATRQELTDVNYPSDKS
Assay: co-IP

“TRPC3-C (659-836aa) (from UniProt Q9QZC1) (domain or fragment)” was tested, and the binding was “binds”.

These are yes or no findings as the source states them, for the method shown. In cells and extracts the contact can be indirect. A result given as binding can be weak or reduced; the word gives no strength. Tags and fused reporters may be left off the sequences shown.
